{"source": "PubChem BioAssay AID652243 (Drosophila RNAi Screening Center, 2013)", "test": "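Fly regulators of androgen-dependent reporter output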 (primary screen)", "system": "Drosophila S2R+ cells", "knock-down reagent": "long dsRNA against Drosophila genes", "time to read-out": "72 h (48 h, then 24 h hormone)", "challenge": "synthetic androgen R1881 at 10 nM for 24 h", "read-out": "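Per-well raw luminescence of the androgen-driven firefly reporter and of the Renilla control, two replicates each, without normalisation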", "scale": "firefly reporter light: higher = more light from androgen-responsive reporter; Renilla control light: higher = more constitutive control signal (cell number, transfection)", "active means": "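Across duplicate plates, a knock-down whose log firefly/Renilla ratio shifted a set fold down or up from the GFP/LacZ control mean was a hit; the downward cut appears as both 1.5 and 3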", "meaning of the calls": "active = hit: reporter lowered or raised; inactive = no hit", "note": "In all, the deposit lists about 24,000 reagents; shown is a random part of those that have a named target and a result. In the full data, 246 (1%) are marked active. 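Plates not normalised; calls are printed but the firefly/Renilla ratio behind them is not deposited; fold cut for lowering reported inconsistently.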 The raw values are shown without normalisation. Reagents against one gene are numbered here. No sequences are given here. Not stated in the record: the amount of reagent."}
{"target gene": "Dpp10", "reagent no.": 1, "firefly reporter light, replicate 1": 1.63e5, "firefly reporter light, replicate 2": 78133, "Renilla control light, replicate 1": 2.06e5, "Renilla control light, replicate 2": 1.29e5, "activity call": "inactive"}
{"target gene": "Dpp10", "reagent no.": 2, "firefly reporter light, replicate 1": 1.22e5, "firefly reporter light, replicate 2": 1.04e5, "Renilla control light, replicate 1": 1.33e6, "Renilla control light, replicate 2": 1.03e6, "activity call": "inactive"}
{"target gene": "squ", "reagent no.": 1, "firefly reporter light, replicate 1": 1.96e5, "firefly reporter light, replicate 2": 1.92e5, "Renilla control light, replicate 1": 6.04e5, "Renilla control light, replicate 2": 5.47e5, "activity call": "inactive"}
{"target gene": "Krn", "reagent no.": 1, "firefly reporter light, replicate 1": 3.53e5, "firefly reporter light, replicate 2": 3.21e5, "Renilla control light, replicate 1": 1.23e6, "Renilla control light, replicate 2": 1.58e6, "activity call": "inactive"}
{"target gene": "CG13069", "reagent no.": 1, "firefly reporter light, replicate 1": 3.73e5, "firefly reporter light, replicate 2": 3.04e5, "Renilla control light, replicate 1": 3.14e6, "Renilla control light, replicate 2": 2.70e6, "activity call": "inactive"}
{"target gene": "CG31460", "reagent no.": 1, "firefly reporter light, replicate 1": 21349, "firefly reporter light, replicate 2": 30884, "Renilla control light, replicate 1": 2.88e5, "Renilla control light, replicate 2": 3.32e5, "activity call": "inactive"}
{"target gene": "Tsp42En", "reagent no.": 1, "firefly reporter light, replicate 1": 4.20e5, "firefly reporter light, replicate 2": 3.50e5, "Renilla control light, replicate 1": 2.69e6, "Renilla control light, replicate 2": 2.76e6, "activity call": "inactive"}

Individual results from the entries so far:
Tsp42En, Renilla control light, replicate 2 → 2.76e6
For “firefly reporter light, replicate 2”, squ has 1.92e5
Result of CG13069 under “activity call”: inactive

More records follow.
{"target gene": "CG11041", "reagent no.": 1, "firefly reporter light, replicate 1": 1.20e5, "firefly reporter light, replicate 2": 1.19e5, "Renilla control light, replicate 1": 1.29e6, "Renilla control light, replicate 2": 1.22e6, "activity call": "inactive"}
{"target gene": "CG11041", "reagent no.": 2, "firefly reporter light, replicate 1": 5.19e5, "firefly reporter light, replicate 2": 7.93e5, "Renilla control light, replicate 1": 1.54e6, "Renilla control light, replicate 2": 1.43e6, "activity call": "inactive"}
{"target gene": "resilin", "reagent no.": 1, "firefly reporter light, replicate 1": 1.53e5, "firefly reporter light, replicate 2": 2.07e5, "Renilla control light, replicate 1": 1.64e5, "Renilla control light, replicate 2": 3.67e5, "activity call": "inactive"}
{"target gene": "resilin", "reagent no.": 2, "firefly reporter light, replicate 1": 1.54e5, "firefly reporter light, replicate 2": 1.55e5, "Renilla control light, replicate 1": 2.80e6, "Renilla control light, replicate 2": 2.80e6, "activity call": "inactive"}
{"target gene": "Gclm", "reagent no.": 1, "firefly reporter light, replicate 1": 37377, "firefly reporter light, replicate 2": 67972, "Renilla control light, replicate 1": 5.08e5, "Renilla control light, replicate 2": 5.48e5, "activity call": "inactive"}
{"target gene": "Gclm", "reagent no.": 2, "firefly reporter light, replicate 1": 3.18e5, "firefly reporter light, replicate 2": 2.77e5, "Renilla control light, replicate 1": 6.70e5, "Renilla control light, replicate 2": 7.91e5, "activity call": "inactive"}
{"target gene": "Rac1", "reagent no.": 1, "firefly reporter light, replicate 1": 83636, "firefly reporter light, replicate 2": 66629, "Renilla control light, replicate 1": 7.22e5, "Renilla control light, replicate 2": 9.85e5, "activity call": "inactive"}
{"target gene": "Rac1", "reagent no.": 2, "firefly reporter light, replicate 1": 4.84e5, "firefly reporter light, replicate 2": 3.68e5, "Renilla control light, replicate 1": 5.16e5, "Renilla control light, replicate 2": 4.60e5, "activity call": "inactive"}
{"target gene": "CG8892", "reagent no.": 1, "firefly reporter light, replicate 1": 8.84e5, "firefly reporter light, replicate 2": 1.01e6, "Renilla control light, replicate 1": 1.50e6, "Renilla control light, replicate 2": 1.76e6, "activity call": "inactive"}
{"target gene": "Epp", "reagent no.": 1, "firefly reporter light, replicate 1": 1.22e5, "firefly reporter light, replicate 2": 87111, "Renilla control light, replicate 1": 9.37e5, "Renilla control light, replicate 2": 1.00e6, "activity call": "inactive"}
{"target gene": "Epp", "reagent no.": 2, "firefly reporter light, replicate 1": 4.72e5, "firefly reporter light, replicate 2": 4.10e5, "Renilla control light, replicate 1": 1.54e6, "Renilla control light, replicate 2": 1.56e6, "activity call": "inactive"}
{"target gene": "BicC", "reagent no.": 1, "firefly reporter light, replicate 1": 1.50e5, "firefly reporter light, replicate 2": 1.44e5, "Renilla control light, replicate 1": 1.93e6, "Renilla control light, replicate 2": 2.42e6, "activity call": "inactive"}
{"target gene": "BicC", "reagent no.": 2, "firefly reporter light, replicate 1": 4.31e5, "firefly reporter light, replicate 2": 4.83e5, "Renilla control light, replicate 1": 9.61e5, "Renilla control light, replicate 2": 9.61e5, "activity call": "inactive"}
{"target gene": "TfIIA-S", "reagent no.": 1, "firefly reporter light, replicate 1": 88541, "firefly reporter light, replicate 2": 1.36e5, "Renilla control light, replicate 1": 1.57e6, "Renilla control light, replicate 2": 1.94e6, "activity call": "inactive"}
